Patent US7214696B2, “Compositions and methods for stabilizing transthyretin and inhibiting transthyretin misfolding” (The Scripps Research Institute, priority 2002, dated 2007)

Experiment: Serum chemistry and side effects in healthy volunteers given diflunisal, Example 3
Format: in vivo, human
Details: after diflunisal administration, all groups
From the text: Thirty healthy volunteers (25 male, 5 female) were enrolled after informed consent was given. The subjects ranged from 23 to 53 years of age (mean age, 37.6±8.8) with a mean body weight of 78.0±12.1 kg. […] This study design was approved by the Human Subjects Committee of Scripps Clinic, Scripps Green Hospital, The Scripps Research Institute, and The Scripps General Clinical Research Center.

SMILES: O=C(O)c1cc(-c2ccc(F)cc2F)ccc1O [diflunisal]
- serum level of RBP: decreased
- serum level of TTR: increased
- serum level of total T4: decreased
